Laboratory results published in US20040228866A1, “Suppressor genes” (Ludwig Institute for Cancer Research, priority 2000, published 2004).
Results are given in words; binding and its absence hold for the method and conditions named. For part of these data: Binding seen in cells or lysates may run through a third protein. Some binding calls cover weakened binding; strength is not graded here. For part of these data: Tags and fused reporters may be left off the sequences shown. Blank lines part the entries; values can stand above or below the binder they belong to.

Columns and labels:
p63γ [1] = molecular target: T1, p63γ (UniProt Q9H3D4); assay: in vitro co-immunoprecipitation (FIGS. 12B and 12C)
T1 sequence (looked up): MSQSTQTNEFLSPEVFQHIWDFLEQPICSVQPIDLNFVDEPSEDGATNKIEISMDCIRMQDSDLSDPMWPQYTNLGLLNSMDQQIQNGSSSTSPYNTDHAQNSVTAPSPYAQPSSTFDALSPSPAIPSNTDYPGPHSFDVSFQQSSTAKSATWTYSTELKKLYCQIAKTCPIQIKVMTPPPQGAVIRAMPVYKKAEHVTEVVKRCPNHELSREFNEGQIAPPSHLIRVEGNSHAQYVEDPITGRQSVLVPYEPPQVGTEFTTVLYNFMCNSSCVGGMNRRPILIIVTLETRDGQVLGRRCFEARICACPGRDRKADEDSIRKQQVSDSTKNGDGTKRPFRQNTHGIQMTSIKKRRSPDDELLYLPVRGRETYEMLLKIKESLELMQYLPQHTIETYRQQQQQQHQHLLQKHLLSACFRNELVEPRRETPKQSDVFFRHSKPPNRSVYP

p63γ [2] = molecular target: T1, p63γ; assay: in vitro translated proteins, anti-V5 immunoprecipitation, autoradiography of the 35S-labelled partner
p63γ [3] = molecular target: T1, p63γ; assay: co-immunoprecipitation from transfected cells (FIGS. 13A-D)
p63γ [4] = molecular target: T1, p63γ; assay: co-immunoprecipitation from transfected H1299 and Saos-2 cells (1 mg lysate), western blot
p63γ [5] = molecular target: T1, p63γ; assay: co-immunoprecipitation from transfected H1299 and Saos-2 cells, western blot; endogenous p63γ with transfected ASPP2 also detected
p63γ [6] = molecular target: T1, p63γ; assay: co-immunoprecipitation from 2 mg cell lysate (FIGS. 13E-F)

binding (p63γ [1]): binds | binding (p63γ [2]): binds
B1: V5-tagged ASPP1 (in vitro translated) (protein, not shown: small tags and cut ends)
chain: MMPMILTVFLSNNEQILTEVPITPETTCRDVVEFCKEPGEGSCHLAEVWRGNERPIPFDHMMYEHLQIWGPRREEVKFFLRHEDSPTENSEQGGRQTQEQRTQRNVINVPGDKRTEYGVGNPRVELTLSELQDMAARQQQQIENQQQMLVAKEQRLHFLKQQERRQQQSISENEKLQKLKERVEAQENKLKKIRAMRGQVDYSKIMNGNLSAEIERFSAMFQEKKQEVQTAILRVDQLSQQLEDLKKGKLNGFQSYNGKLTGPAAVELKRLYQELQIRNQLNQEQNSKLQQQKELLNKRNMEVAMMDKRISELRERLYGKKIQLNRVNGTSSPQSPLSTSGRVAAVGPYIQVPSAGSFPVLGDPIKPQSLSIASNAAHGRSKSANDGNWPTLKQNSSSSVKPVQVAGADWKDPSVEGSVKQGTVSSQPVPFSALGPTEKPGIEIGKVPPPIPGVGKQLPPSYGTYPSPTPLGPGSTSSLERRKEGSLPRPSAGLPSRQRPTLLPATGSTPQPGSSQQIQQRISVPPSPTYPPAGPPAFPAGDSKPELPLTVAIRPFLADKGSRPQSPRKGPQTVNSSSIYSMYLQQATPPKNYQPAAHSALNKSVKAVYGKPVLPSGSTSPSPLPFLHGSLSTGTPQPQPPSESTEKEPEQDGPAAPADGSTVESLPRPLSPTKLTPIVHSPLRYQSDADLEALRRKLANAPRPLKKRSSITEPEGPGGPNIQKLLYQRFNTLAGGMEGTPFYQPSPSQDFMGTLADVDNGNTNANGNLEELPPAQPTAPLPAEPAPSSDANDNELPSPEPEELICPQTTHQTAEPAEDNNNNVATVPTTEQIPSPVAEAPSPGEEQVPPAPLPPASHPPATSTNKRTNLKKPNSERTGHGLRVRFNPLALLLDASLEGEFDLVQRIIYEVEDPSKPNDEGITPLHNAVCAGHHHIVKFLLDFGVNVNAADSDGWTPLHCAASCNSVHLCKQLVESGAAIFASTISDIETAADKCEEMEEGYIQCSQFLYGVQEKLGVMNKGVAYALWDYEAQNSDELSFHEGDALTILRRKDESETEWWWARLGDREGYVPKNLLGLYPRIKPRQRTLA

binding (p63γ [3]): binds | binding (p63γ [4]): binds
B2: Apoptosis Stimulating Protein 1 (ASPP1) (protein)
chain: B1 chain

The next lines start with the binder.

B3: V5-tagged ASPP2 (in vitro translated) (protein, not shown: small tags and cut ends)
chain: MMPMFLTVYLSNNEQHFTEVPVTPETICRDVVDLCKEPGESDCHLAEVWCGSERPVADNERMFDVLQRFGSQRNEVRFFLRHERPPGRDIVSGPRSQDPSLKRNGVKVPGEYRRKENGVNSPRMDLTLAELQEMASRQQQQIEAQQQLLATKEQRLKFLKQQDQRQQQQVAEQEKLKRLKEIAENQEAKLKKVRALKGHVEQKRLSNGKLVEEIEQMNNLFQQKQRELVLAVSKVEELTRQLEMLKNGRIDSHHDNQSAVAELDRLYKELQLRNKLNQEQNAKLQQQRECLNKRNSEVAVMDKRVNELRDRLWKKKAALQQKENLPVSSDGNLPQQAASAPSRVAAVGPYIQSSTMPRMPSRPELLVKPALPDGSLVIQASEGPMKIQTLPNMRSGAASQTKGSKIHPVGPDWSPSNADLFPSQGSASVPQSTGNALDQVDDGEVPLREKEKKVRPFSMFDAVDQSNAPPSFGTLRKNQSSEDILRDAQVANKNVAKVPPPVPTKPKQINLPYFGQTNQPPSDIKPDGSSQQLSTVVPSMGTKPKPAGQQPRVLLSPSIPSVGQDQTLSPGSKQESPPAAAVRPFTPQPSKDTLLPPFRKPQTVAASSIYSMYTQQQAPGKNFQQAVQSALTKTHTRGPHFSSVYGKPVIAAAQNQQQHPENIYSNSQGKPGSPEPETEPVSSVQENHENERIPRPLSPTKLLPFLSNPYRNQSDADLEALRKKLSNAPRPLKKRSSITEPEGPNGPNIQKLLYQRTTIAAMETISVPSYPSKSASVTASSESPVEIQNPYLHVEPEKEVVSLVPESLSPEDVGNASTENSDMPAPSPGLDYEPEGVPDNSPNLQNNPEEPNPEAPHVLDVYLEEYPPYPPPPYPSGEPEGPGEDSVSMRPPEITGQVSLPPGKRTNLRKTGSERIAHGMRVKFNPLALLLDSSLEGEFDLVQRIIYEVDDPSLPNDEGITALHNAVCAGHTEIVKFLVQFGVNVNAADSDGWTPLHCAASCNNVQVCKFLVESGAAVFAMTYSDMQTAADKCEEMEEGYTQCSQFLYGVQEKMGIMNKGVIYALWDYEPQNDDELPMKEGDCMTIIHREDEDEIEWWWARLNDKEGYVPRNLLGLYPRIKPRQRSLA
binding (p63γ [1]): binds | binding (p63γ [2]): binds

B4: ASPP2 (1-1128) (protein)
chain: B3 chain
binding (p63γ [5]): binds | binding (p63γ [3]): binds | binding (p63γ [6]): binds
